Measurements from patent publication US12264352B2 (Research Foundation of the City University of New York, priority 2016, dated 2025).
Some peptides are written in HELM: one residue between dots, names in brackets for other building blocks, links after the first $.

Assay: peptide synthesis
Details: whole synthesis, reversed-phase HPLC and mass spectrometry

PEPTIDE1{[Nap].F.F.[K(NBD)].[Yp]}$$$$V2.0
final HPLC purity: 99.9% | final purity (method not given): 75.6%
